The list does not hold the whole screen: it is rich in T/C values a quarter to a half above the control, in often repeated tests (any T/C) and in doses without a T/C. Other doses and runs of a compound stand elsewhere. T/C: endpoint of the treated group in % of that of the vehicle group. Some entries give survivors of the animals treated and no T/C: the source holds a T/C of zero for them, seemingly a mark for toxic or unscored doses. Some doses without a T/C left all or most animals alive at the check, yet need not have been tolerated: the source hardly ever lists a survival T/C far under the control, and the zero likely stands for such cases as well. Counts of survivors are from the toxicity check (mostly the fifth day) where no day follows; animals may have died later. Schedule codes are those of the source, taken here to give the interval after Q, in days (D) or hours (H), and the number of doses after X. Some entries hold several experiments; their values stand side by side, smallest first. For survival time, this PubChem deposit counts one and a half times the control or more as active, and values a quarter to a half above the control carry no call in these data; other NCI protocols may use other cut-offs. Some T/C values are followed by the survivors on the day toxicity was checked, most often the fifth; without a count, all were alive then. Signs of the kind (2×) stand for listed records that agree.
Test system: CD2F1 mice, L1210 leukemia ip, survival T/C
Assay: NCI In Vivo Anticancer Drug Screen. Data for tumor model L1210 Leukemia (intraperitoneal) in CD2F1 (CDF1) mice
Conditions: higher T/C = longer survival
Procedure, shortened: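 Mice carrying a transplanted tumor received test compound or vehicle alone. The value is the measurement in the treated group divided by that in the vehicle-treated control group.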

[1] = T/C endpoint: mean survival time, dose: 100.0 mg/kg/injection, schedule: Q04DX002 (ip), vehicle: saline with Tween-80
[2] = T/C endpoint: mean survival time, dose: 200.0 mg/kg/injection, schedule: Q04DX002 (ip), vehicle: saline with Tween-80
[3] = T/C endpoint: mean survival time, dose: 400.0 mg/kg/injection, schedule: Q04DX002 (ip), vehicle: saline with Tween-80
[4] = T/C endpoint: median survival time, dose: 2.0 mg/kg/injection, schedule: Q01DX005 (ip), vehicle: Klucel (hydroxypropylcellulose) (HPC)
[5] = T/C endpoint: median survival time, dose: 2.0 mg/kg/injection, schedule: Q01DX009 (ip), vehicle: Klucel (hydroxypropylcellulose) (HPC)
[6] = T/C endpoint: mean survival time, dose: 300.0 mg/kg/injection, schedule: Q01DX001 (ip), vehicle: saline
[7] = T/C endpoint: mean survival time, dose: 50.0 mg/kg/injection, schedule: Q01DX009 (ip), vehicle: saline with Tween-80
[8] = T/C endpoint: mean survival time, dose: 100.0 mg/kg/injection, schedule: Q04DX003 (ip), vehicle: saline with Tween-80
[9] = T/C endpoint: mean survival time, dose: 400.0 mg/kg/injection, schedule: Q04DX003 (ip), vehicle: saline with Tween-80
[10] = T/C endpoint: median survival time, dose: 800.0 mg/kg/injection, schedule: Q01DX009 (ip), vehicle: saline with Tween-80
[11] = T/C endpoint: mean survival time, dose: 200.0 mg/kg/injection, schedule: Q01DX009 (ip), vehicle: saline with Tween-80

With `C[n+]1c(/C=C\C=C\N2CCCCC2)sc2ccccc21` the survivor count (T/C endpoint: mean survival time, dose: 50.0 mg/kg/injection, schedule: Q04DX002 (ip), vehicle: saline with Tween-80) was 0 of 3, the survivor count [1] was 0 of 3 and the survivor count [2] was 0 of 3. For the same compound, the survivor count [3] was 0 of 3, the T/C (T/C endpoint: median survival time, dose: 0.13 mg/kg/injection, schedule: Q01DX005 (ip), vehicle: Klucel (hydroxypropylcellulose) (HPC)) was 98, 100, 102 (3×), 103, 104, 105, 112 (2×), 114 % of control and the T/C (T/C endpoint: median survival time, dose: 0.13 mg/kg/injection, schedule: Q01DX009 (ip), vehicle: Klucel (hydroxypropylcellulose) (HPC)) was 96, 102 (4×), 104 (2×), 105, 106, 107 % of control (2×). The T/C (T/C endpoint: median survival time, dose: 0.25 mg/kg/injection, schedule: Q01DX005 (ip), vehicle: Klucel (hydroxypropylcellulose) (HPC)) was 100, 101, 102 (2×), 103, 107, 108 (2×), 109, 110 % of control (2×), the T/C (T/C endpoint: median survival time, dose: 0.25 mg/kg/injection, schedule: Q01DX009 (ip), vehicle: Klucel (hydroxypropylcellulose) (HPC)) was 97, 98, 100 (2×), 102 [5 of 6 alive], 104, 105 (2×), 106, 108, 113 % of control and the T/C (T/C endpoint: median survival time, dose: 0.5 mg/kg/injection, schedule: Q01DX005 (ip), vehicle: Klucel (hydroxypropylcellulose) (HPC)) was 98, 100, 101 [5 of 6 alive], 102 (3×), 104, 105, 106, 110, 112 % of control. For the same compound, the T/C (T/C endpoint: median survival time, dose: 0.5 mg/kg/injection, schedule: Q01DX009 (ip), vehicle: Klucel (hydroxypropylcellulose) (HPC)) was 101, 102, 103 (3×), 106 (2×), 108 (2×), 110, 114 % of control, the T/C (T/C endpoint: median survival time, dose: 1.0 mg/kg/injection, schedule: Q01DX005 (ip), vehicle: Klucel (hydroxypropylcellulose) (HPC)) was 98, 102, 105 (2×), 106 (2×), 107, 108, 109, 113, 114 % of control and the T/C (T/C endpoint: median survival time, dose: 1.0 mg/kg/injection, schedule: Q01DX009 (ip), vehicle: Klucel (hydroxypropylcellulose) (HPC)) was 100, 102, 104 (2×), 105, 106, 110, 112, 113, 123, 125 % of control. For the same compound, the T/C [4] was 104, 109 [5 of 6 alive], 110, 112, 113 (2×), 116, 119, 120, 121 % of control [5 of 6 alive], the survivor count [4] was 4 of 6 and the T/C [5] was 96, 102, 107, 110 (2×), 113 [5 of 6 alive], 120, 121 [5 of 6 alive], 123, 132 % of control. The survivor count [5] was 3 of 6.

With `CNCc1ccc2c(c1)OCO2` the survivor count [6] was 1 of 6.

In the case of `CCn1c(C)cc(=O)c2ccccc21`, the survivor count [3] is reported as 0 of 3.

For `NC(=S)N/N=C\c1nccc2c(N)cccc12`, the T/C (T/C endpoint: mean survival time, dose: 6.25 mg/kg/injection, schedule: Q01DX009 (ip), vehicle: saline with Tween-80, evaluated on day 30) was 142 % of control, the T/C (T/C endpoint: mean survival time, dose: 6.25 mg/kg/injection, schedule: Q01DX009 (ip), vehicle: saline with Tween-80, evaluated on day 60) was 137 % of control and the T/C (T/C endpoint: mean survival time, dose: 9.4 mg/kg/injection, schedule: Q01DX009 (ip), vehicle: saline with Tween-80) was 126 % of control. The T/C (T/C endpoint: mean survival time, dose: 12.5 mg/kg/injection, schedule: Q01DX009 (ip), vehicle: saline with Tween-80) was 145 % of control, the T/C (T/C endpoint: mean survival time, dose: 18.8 mg/kg/injection, schedule: Q01DX009 (ip), vehicle: saline with Tween-80) was 132 % of control and the T/C (T/C endpoint: mean survival time, dose: 25.0 mg/kg/injection, schedule: Q01DX009 (ip), vehicle: saline with Tween-80) was 134 % of control [5 of 6 alive]. For the same compound, the T/C (T/C endpoint: mean survival time, dose: 37.5 mg/kg/injection, schedule: Q01DX009 (ip), vehicle: saline with Tween-80) was 143 % of control, the survivor count [7] was 6 of 6 and the survivor count (T/C endpoint: mean survival time, dose: 75.0 mg/kg/injection, schedule: Q01DX009 (ip), vehicle: saline with Tween-80) was 6 of 6. For the same compound, the survivor count (T/C endpoint: mean survival time, dose: 150.0 mg/kg/injection, schedule: Q01DX009 (ip), vehicle: saline with Tween-80) was 4 of 6.

In the case of `CC1CCC(NC2=NCCO2)C(C)C1` (stereo unspecified), the survivor count [8] is reported as 3 of 6.

With `CC(=O)NC(C=O)CC(C=O)CO` (stereo unspecified) the survivor count (T/C endpoint: mean survival time, dose: 300.0 mg/kg/injection, schedule: Q04DX003 (ip), vehicle: saline) was 3 of 6.

In the case of `COC1=CC(=O)c2ccccc2C1=O`, the survivor count [9] is reported as 0 of 3.

For `O=c1[nH]cccc1O`, the T/C (T/C endpoint: median survival time, dose: 100.0 mg/kg/injection, schedule: Q01DX009 (ip), vehicle: saline with Tween-80) was 100, 102, 103, 113 % of control, the T/C (T/C endpoint: median survival time, dose: 200.0 mg/kg/injection, schedule: Q01DX009 (ip), vehicle: saline with Tween-80) was 111, 112, 116 [5 of 6 alive], 138 % of control and the T/C (T/C endpoint: median survival time, dose: 400.0 mg/kg/injection, schedule: Q01DX009 (ip), vehicle: saline with Tween-80) was 111 [4 of 6 alive], 122, 143 [5 of 6 alive], 149 % of control. The T/C (T/C endpoint: median survival time, dose: 500.0 mg/kg/injection, schedule: Q01DX009 (ip), vehicle: saline with Tween-80) was 139 % of control, the survivor count (T/C endpoint: median survival time, dose: 532.0 mg/kg/injection, schedule: Q03HX027 (ip), vehicle: saline with Tween-80) was 0 of 6 and the T/C [10] was 159 % of control [5 of 6 alive]. The survivor count [10] was 0 of 6 and 1 of 6 and the survivor count (T/C endpoint: median survival time, dose: 1000.0 mg/kg/injection, schedule: Q01DX009 (ip), vehicle: saline with Tween-80) was 2 of 6.

For `ON=c1c2ccccc2oc2ccccc12`, the survivor count (T/C endpoint: mean survival time, dose: 400.0 mg/kg/injection, schedule: Q04DX002 (ip), vehicle: Klucel (hydroxypropylcellulose) (HPC)) was 1 of 3.

With `C=Cc1nnnn1C12CC3CC(CC(C3)C1)C2` the survivor count (T/C endpoint: mean survival time, dose: 200.0 mg/kg/injection, schedule: Q01DX001 (ip), vehicle: saline with Tween-80) was 0 of 6.

In the case of `O=C(CNC(=O)Nc1cccc(C(F)(F)F)c1)N/N=C/c1ccccc1O`, the survivor count [7] is reported as 3 of 3.

`COc1cc(CC2c3cc(OC)c(OC)cc3CCN2C)c(Oc2cc3c(cc2OC)-c2c(OC)c(OC)c(OC)c4c2C(C3)N(C)CC4)cc1OC` (stereo unspecified) was tested, and the survivor count [11] was 3 of 6.

`CN=[N+]([O-])C1(OC(C)=O)CCCC1` was tested, and the survivor count (T/C endpoint: mean survival time, dose: 200.0 mg/kg/injection, schedule: Q01DX001 (ip), vehicle: saline) was 4 of 6.

In the case of `COCCCN1CCN(c2ccccc2OC)CC1`, the survivor count (T/C endpoint: mean survival time, dose: 200.0 mg/kg/injection, schedule: Q01DX009 (ip), vehicle: saline) is reported as 0 of 6 and the survivor count (T/C endpoint: mean survival time, dose: 400.0 mg/kg/injection, schedule: Q04DX003 (ip), vehicle: saline) is reported as 0 of 6.

In the case of `O=[N+]([O-])c1ccc(-n2[nH]nnc2=S)cc1`, the survivor count (T/C endpoint: mean survival time, dose: 400.0 mg/kg/injection, schedule: Q01DX009 (ip), vehicle: acetone) is reported as 0 of 6.

For `Nc1ccn(C2OC(CO)C3[O][Sn]([c]4ccccc4)([c]4ccccc4)[O]C32)c(=O)n1` (stereo unspecified), the survivor count (T/C endpoint: mean survival time, dose: 25.0 mg/kg/injection, schedule: Q01DX005 (ip), vehicle: other) was 0 of 6, the survivor count (T/C endpoint: mean survival time, dose: 50.0 mg/kg/injection, schedule: Q01DX005 (ip), vehicle: other) was 0 of 6 and the survivor count (T/C endpoint: mean survival time, dose: 100.0 mg/kg/injection, schedule: Q01DX005 (ip), vehicle: other) was 0 of 6. For the same compound, the survivor count (T/C endpoint: mean survival time, dose: 200.0 mg/kg/injection, schedule: Q01DX005 (ip), vehicle: other) was 0 of 6.

For `CCCCCCCCCCCCN(CN1C(=O)c2ccccc2C1=O)CN1C(=O)c2ccccc2C1=O`, the survivor count [11] was 5 of 6.

With `CC(CN=Cc1ccccc1[NH-])N=Cc1ccccc1[NH-].[Ni+2]` (stereo unspecified) the survivor count [1] was 1 of 3, the survivor count [2] was 0 of 3 and the survivor count [3] was 0 of 3.

For `CC(=O)C(C[CH2][Hg][Cl])C(C)=O`, the survivor count (T/C endpoint: mean survival time, dose: 150.0 mg/kg/injection, schedule: Q01DX001 (ip), vehicle: other) was 1 of 6 and the survivor count (T/C endpoint: mean survival time, dose: 300.0 mg/kg/injection, schedule: Q01DX001 (ip), vehicle: other) was 0 of 6.

In the case of `O=C(O)c1cc(F)c(F)c(F)c1F`, the survivor count [8] is reported as 0 of 6 and 6 of 6, the survivor count (T/C endpoint: mean survival time, dose: 200.0 mg/kg/injection, schedule: Q04DX003 (ip), vehicle: saline with Tween-80) is reported as 0 of 6 and the survivor count [9] is reported as 0 of 6.

`O=C(N/N=C\c1c(Cl)cccc1Cl)c1ccccc1` was tested, and the survivor count (T/C endpoint: mean survival time, dose: 400.0 mg/kg/injection, schedule: Q01DX009 (ip), vehicle: Klucel (hydroxypropylcellulose) (HPC)) was 0 of 6.

For `CC(=O)Nc1ccccc1C(C)=O`, the survivor count (T/C endpoint: mean survival time, dose: 400.0 mg/kg/injection, schedule: Q01DX009 (ip), vehicle: saline with Tween-80) was 5 of 6.

In the case of `Cc1ncc(C[P+](c2ccccc2)(c2ccccc2)c2ccccc2)c(C)c1O`, the survivor count (T/C endpoint: mean survival time, dose: 150.0 mg/kg/injection, schedule: Q01DX001 (ip), vehicle: saline) is reported as 3 of 6 and the survivor count [6] is reported as 0 of 6.

With `CC1(C)N=C(N)N=C(N)N1c1ccccc1Cl` the survivor count (T/C endpoint: mean survival time, dose: 100.0 mg/kg/injection, schedule: Q04DX002 (ip), vehicle: saline) was 0 of 3 and the survivor count (T/C endpoint: mean survival time, dose: 200.0 mg/kg/injection, schedule: Q04DX002 (ip), vehicle: saline) was 0 of 3.

Source: PubChem BioAssay AID256 (DTP/NCI, 2004)
